Here are results for 78 molecules from the supplement of paper PMC7752906.

Counter-ions that a name gives are not always drawn. This is one part of the list. Repeats in this data set agree poorly, so a single value says little.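 About 40 Schistosoma mansoni schistosomula per well were imaged over time in bright field and compared with 0.1% DMSO wells. A drug counts as a hit if its Mahalanobis distance reaches 2.47 or more, three standard deviations above the DMSO control mean. Degeneracy is the fraction of worms scored opaque.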

The assay deals with Schistosoma mansoni schistosomula. As to the kind of experiment: degeneracy (percent of somules classified as degenerate/opaque); higher = more parasite degeneration/death; extreme values may be limits of the assay. The settings on record: 10 µM; 72 h.
For `Cc1cccc(N(C)C(=S)Oc2ccc3ccccc3c2)c1` [Tolnaftate], the degeneracy worked out at 24.1%.

Molecule `O=c1[nH]c(=O)n([C@H]2C[C@H](O)[C@@H](CO)O2)cc1I` [Idoxuridine] showed a degeneracy of 0%.

As for `C#C[C@]1(O)CC[C@H]2[C@@H]3CCC4=Cc5oncc5C[C@]4(C)[C@H]3CC[C@@]21C` [Danazol], the degeneracy was found to be 58.8%.

Consider `CCOc1ccc(Cc2nccc3cc(OCC)c(OCC)cc23)cc1OCC` [Ethaverine Hydrochloride], for which the degeneracy turned out to be 21.6%.

`O=C(Nc1ccc([N+](=O)[O-])cc1Cl)c1cc(Cl)ccc1O` [niclosamide] came in with a degeneracy of 100%.

In turn, `CC/C=C\C/C=C\C/C=C\C/C=C\C/C=C\C/C=C\CCC(=O)O` [Doconexent] registered a degeneracy of 16.2%.

In turn, `CCC[C@@H]1C[C@@H](C(=O)N[C@@H]([C@H]2O[C@H](SC)[C@H](O)[C@@H](O)[C@H]2O)[C@@H](C)O)N(C)C1` [Lincomycin] yielded a degeneracy of 9.09%.

As to `O=c1cc[nH]c(=O)[nH]1` [Uracil], the degeneracy is 9.68%.

Molecule `CCCCOc1ccc(C(=O)CCN2CCCCC2)cc1` [Dyclonine Hydrochloride] displayed a degeneracy of 7.69%.

`CC(C)(C)CC(C)(C)c1ccc(OCCOCC[N+](C)(C)Cc2ccccc2)cc1` [Benzethonium Chloride] gave a degeneracy of 100%.

In the case of `Cn1nnc2c(C(N)=O)ncn2c1=O` [Temozolomide], the degeneracy worked out at 11.9%.

As for `CC(C)(C)NC(=O)[C@H]1CC[C@H]2[C@@H]3CC[C@H]4NC(=O)C=C[C@]4(C)[C@H]3CC[C@]12C` [Finasteride], the degeneracy was determined as 10.5%.

Take `C=C1CC[C@H](O)C/C1=C/C=C1\CCC[C@]2(C)[C@@H]([C@H](C)/C=C/[C@H](C)C(C)C)CC[C@@H]12` [Ergocalciferol]: the degeneracy was 0%.

Consider `CC(C)C(=O)c1c(C(C)C)nn2ccccc12` [Ibudilast], for which the degeneracy was 0%.

Take `C[N+](C)(C)C[C@H](O)CC(=O)[O-]` [Levocarnitine]: the degeneracy worked out at 15.4%.

With `OC(CCN1CCCC1)(c1ccccc1)C1CCCCC1` (stereo not drawn) [Procyclidine], the degeneracy was 19.1%.

Consider `CC(C)NCC(O)COc1cccc2[nH]ccc12` (stereo not drawn) [Pindolol], for which the degeneracy was 2.78%.

For the molecule `CC(CN(C)C)CN1c2ccccc2CCc2ccccc21` (stereo not drawn) [Trimipramine], the degeneracy worked out at 100%.

As to `CC1(C)O[C@@H]2C[C@H]3[C@@H]4C[C@H](F)C5=CC(=O)C=C[C@]5(C)[C@H]4[C@@H](O)C[C@]3(C)[C@]2(C(=O)CO)O1` [Flunisolide], the degeneracy was 3.12%.

The molecule `CN(Cc1cc(Br)cc(Br)c1N)C1CCCCC1` [Bromhexine] showed a degeneracy of 100%.

`NCCc1ccc(O)c(O)c1` [Dopamine Hydrochloride]: the degeneracy turned out to be 4.35%.

On to `CC(=O)OCC(=O)[C@@]1(O)CC[C@H]2[C@@H]3CCC4=CC(=O)C=C[C@]4(C)[C@H]3[C@@H](O)C[C@@]21C` [Prednisolone Acetate], for which the degeneracy came to 0%.

In turn, `Cc1ccc(O)c([C@H](CCN(C(C)C)C(C)C)c2ccccc2)c1` [Tolterodine] displayed a degeneracy of 2.38%.

As for `NC[C@H]1CC[C@H](C(=O)O)CC1` [Tranexamic Acid], the degeneracy was determined as 17.6%.

`Oc1c(Cl)cc(Cl)cc1Sc1cc(Cl)cc(Cl)c1O` [Bithionol] displayed a degeneracy of 100%.

`CCCCOc1ccc(CC(=O)NO)cc1` [Bufexamac] returned a degeneracy of 10.4%.

The molecule `COc1ccc2nc3cc(Cl)ccc3c(Nc3cc(CN4CCCC4)c(O)c(CN4CCCC4)c3)c2n1` [Pyronaridine Tetraphosphate] displayed a degeneracy of 4.88%.

For the molecule `Cc1c(O)cccc1C(=O)N[C@@H](CSc1ccccc1)[C@H](O)CN1C[C@H]2CCCC[C@H]2C[C@H]1C(=O)NC(C)(C)C` [Nelfinavir], the degeneracy turned out to be 100%.

In turn, `CC(C)CCC[C@@H](C)[C@H]1CC[C@H]2[C@@H]3CC=C4C[C@@H](O)CC[C@]4(C)[C@H]3CC[C@]12C` [Cholesterol] showed a degeneracy of 7.69%.

Turning to `COc1ccc(-n2nc(CCC(=O)N(C)O)cc2-c2ccc(Cl)cc2)cc1` [Tepoxalin], the degeneracy is 5.88%.

Regarding `O=P(O)(O)C(O)(Cc1cccnc1)P(=O)(O)O` [Risedronate Sodium], the degeneracy stood at 3.7%.

`O=C(O)c1cc(O)c(O)c(O)c1` [Gallic Acid] returned a degeneracy of 18.2%.

Molecule `CCN(CC)C(=O)N1CCN(C)CC1` [Diethylcarbamazine] had a degeneracy of 10.3%.

Molecule `CC[C@]1(O)C[C@@H]2CN(CCc3c([nH]c4ccccc34)[C@@](C(=O)OC)(c3cc4c(cc3OC)N(C)[C@H]3[C@@](O)(C(=O)OC)[C@H](OC(C)=O)[C@]5(CC)C=CCN6CC[C@]43[C@@H]65)C2)C1` [Vinblastine Sulfate] came in with a degeneracy of 47.6%.

In turn, `CC(=O)[C@H]1CC[C@H]2[C@@H]3CC=C4C[C@@H](OC(=O)CCC(=O)O)CC[C@]4(C)[C@H]3CC[C@]12C` [Pregnenolone Succinate] gave a degeneracy of 10%.

Regarding `CCN(CCCc1ccccc1)CCCc1ccccc1` [Alverine Citrate], the degeneracy was found to be 16.7%.

The molecule `Clc1ccccc1C(c1ccccc1)(c1ccccc1)n1ccnc1` [Clotrimazole] came in with a degeneracy of 100%.

In turn, `CO/N=C1\CN(c2nc3c(cc2F)c(=O)c(C(=O)O)cn3C2CC2)CC1CN` (stereo not drawn) [Gemifloxacin Mesylate] yielded a degeneracy of 2.33%.

For the molecule `Cc1cc(CC(C)CC(C)(C)C)n(O)c(=O)c1` (stereo not drawn) [Piroctone Olamine], the degeneracy stood at 100%.

In the case of `O=S(=O)(O)CCSSCCS(=O)(=O)O` [Dimesna], the degeneracy worked out at 9.68%.

Turning to `O=C(O)CCc1nc2ccccc2[nH]1` [Procodazole], the degeneracy came to 0%.

Molecule `NC(=O)c1cccnc1` [Niacinamide] displayed a degeneracy of 5.71%.

`Nc1nccs1` [Aminothiazole]: the degeneracy stood at 6.98%.

`Cn1c(=O)c2c(ncn2CC(O)CO)n(C)c1=O` (stereo not drawn) [Dyphylline] came in with a degeneracy of 3.85%.

In turn, `CCCc1nc(C(C)(C)O)c(C(=O)OCc2oc(=O)oc2C)n1Cc1ccc(-c2ccccc2-c2nnn[nH]2)cc1` [Olmesartan Medoxomil] registered a degeneracy of 10.7%.

Molecule `NC(=O)C1(N2CCCCC2)CCN(CCCC(=O)c2ccc(F)cc2)CC1` [Pipamperone] gave a degeneracy of 3.45%.

For the molecule `CC1=C(C(=O)O)N2C(=O)[C@@H](NC(=O)[C@H](N)c3ccc(O)cc3)[C@H]2SC1` [Cefadroxil], the degeneracy was found to be 11.4%.

Turning to `CC(C)(Oc1ccc(C2CC2(Cl)Cl)cc1)C(=O)O` (stereo not drawn) [Ciprofibrate], the degeneracy was 2.38%.

`O=C(O)[C@@H](S)[C@@H](S)C(=O)O` [Succimer] had a degeneracy of 0%.

As for `CCN1CCC[C@H]1CNC(=O)c1cc(S(N)(=O)=O)ccc1OC` [Levosulpiride], the degeneracy worked out at 7.14%.

`Nc1ccc(S(N)(=O)=O)cc1` [Sulfanilamide] displayed a degeneracy of 2.86%.

On to `CC(CCc1ccc(O)cc1)NCCc1ccc(O)c(O)c1` (stereo not drawn) [Dobutamine], for which the degeneracy was determined as 9.09%.

With `CCC(C)(C)c1ccc(CC(C)CN2C[C@@H](C)O[C@@H](C)C2)cc1` (stereo partly drawn) [Amorolfine], the degeneracy came to 8.57%.

As to `CC[C@]12CCCN3CCc4c(n(c5ccccc45)[C@@](O)(C(=O)OC)C1)[C@@H]32` [Vincamine], the degeneracy amounted to 14.8%.

`S=P(N1CC1)(N1CC1)N1CC1` [Thiotepa] gave a degeneracy of 3.12%.

Take `Nc1nc(N)nc(-c2cc(Cl)ccc2Cl)n1` [Irsogladine Maleate]: the degeneracy worked out at 10.8%.

Molecule `CCN1CCCC1CNC(=O)c1cc(S(=O)(=O)CC)c(N)cc1OC` (stereo not drawn) [Amisulpride] showed a degeneracy of 3.7%.

In the case of `CC1CCc2cc(F)cc3c(=O)c(C(=O)O)cn1c23` (stereo not drawn) [Flumequine], the degeneracy worked out at 9.52%.

For `CC(C)[C@H]1CC[C@H](C(=O)N[C@H](Cc2ccccc2)C(=O)O)CC1` [Nateglinide], the degeneracy came out at 0%.

For the molecule `CC(=O)Oc1cccc(C(=O)O)c1OC(C)=O` [Dipyrocetyl], the degeneracy amounted to 3.23%.

`CC(C)c1nc(CN(C)C(=O)N[C@H](C(=O)N[C@@H](Cc2ccccc2)C[C@H](O)[C@H](Cc2ccccc2)NC(=O)OCc2cncs2)C(C)C)cs1` [Ritonavir] came in with a degeneracy of 26.3%.

On to `CCn1cc(C(=O)O)c(=O)c2cc(F)c(N3CCNCC3)cc21` [Norfloxacin], for which the degeneracy stood at 3.03%.

Molecule `CCOC(=O)C1=C(C)NC(C)=C(C(=O)OC)C1c1cccc([N+](=O)[O-])c1` (stereo not drawn) [Nitrendipine] showed a degeneracy of 2.5%.

Turning to `O=C(c1ccc(OCCN2CCCCC2)cc1)c1c(-c2ccc(O)cc2)sc2cc(O)ccc12` [Raloxifene], the degeneracy is 100%.

In turn, `CCC(=O)NCC[C@@H]1CCc2ccc3c(c21)CCO3` [Ramelteon] yielded a degeneracy of 2.38%.

`CN(C)CCC(c1ccc(Cl)cc1)c1ccccn1` (stereo not drawn) [Chlorpheniramine]: the degeneracy worked out at 3.57%.

With `COc1cc(N)c(Cl)cc1C(=O)NC1CCN(CCCOc2ccc(F)cc2)CC1OC` (stereo not drawn) [Cisapride], the degeneracy came out at 10.7%.

`COc1ccc2cc1Oc1ccc(cc1)C[C@H]1c3c(cc4c(c3Oc3cc5c(cc3OC)CCN(C)[C@@H]5C2)OCO4)CCN1C` [cepharanthine] had a degeneracy of 100%.

For `O=C(O[C@@H]1C[C@@H]2C[C@H]3C[C@H](C1)N2CC3=O)c1c[nH]c2ccccc12` [Dolasetron], the degeneracy amounted to 100%.

For the molecule `CC(C)(C)NC(=O)[C@@H]1CN(Cc2cccnc2)CCN1C[C@@H](O)C[C@@H](Cc1ccccc1)C(=O)N[C@H]1c2ccccc2C[C@H]1O` [Indinavir], the degeneracy is 0%.

On to `Cc1c(OCC(F)(F)F)ccnc1C[S+]([O-])c1nc2ccccc2[nH]1` (stereo not drawn) [Lansoprazole], for which the degeneracy worked out at 0%.

The molecule `Cn1c(=O)c2c(ncn2C)n(C)c1=O` [Caffeine] gave a degeneracy of 17.2%.

As to `NC(=O)c1ccc[n+]([C@@H]2O[C@H](COP(=O)([O-])OP(=O)(O)OC[C@H]3O[C@@H](n4cnc5c(N)ncnc54)[C@H](O)[C@@H]3O)[C@@H](O)[C@H]2O)c1` [Nadide], the degeneracy stood at 0%.

Molecule `NCC(=O)CCC(=O)O` [Aminolevulinic Acid Hydrochloride] returned a degeneracy of 2.56%.

With `Cc1cc2c(OCC(CNC(C)(C)C)OC(=O)c3ccccc3)cccc2[nH]1` (stereo not drawn) [Bopindolol], the degeneracy stood at 4.17%.

For the molecule `O=C(O)/C=C/C(=O)O` [Fumaric Acid], the degeneracy was determined as 0%.

Turning to `O=C(O)C[C@H](O)C[C@H](O)/C=C/c1c(C2CC2)nc2ccccc2c1-c1ccc(F)cc1` [Pitavastatin Calcium], the degeneracy amounted to 78.3%.

As to `CC1(C)[C@@H](O)CC[C@]2(C)[C@H]3C(=O)C=C4[C@@H]5C[C@@](C)(C(=O)O)CC[C@]5(C)CC[C@@]4(C)[C@]3(C)CC[C@@H]12` [Enoxolone], the degeneracy came out at 100%.
